26 compounds from the supplement of paper PMC10735217 can be followed below.

Some of the results follow. Single values are uncertain here, since repeats match poorly.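 In a drug-repurposing library screen, luminescence reads luciferase driven by eight TEAD-binding elements, stably integrated into human kidney-derived cells. Compounds scoring over five robust Z scores above the plate mean are called hits.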

This assay has as its system HEK293A TEAD-LUC reporter. In words: TEAD-luciferase reporter activity (YAP activation), robust Z score vs plate; higher = stronger YAP/TEAD activation. As to conditions: 24 h.

Consider `COc1cc(C(C)C)c(Oc2cnc(N)nc2N)cc1I`, for which the TEAD-luciferase reporter activity runs as follows: (compound concentration: 200 nM) inactive: -0.43; (compound concentration: 2 uM) inactive: -0.12; (compound concentration: 10 uM) inactive: -0.15.

Take `CCCN(CCC)C(=O)C(Cc1ccc(OCCCN2CCN(C)CC2)cc1)NC(=O)c1ccc(Cl)cc1` (configuration not stated): the TEAD-luciferase reporter activity by setting is: (compound concentration: 200 nM) inactive: -2.7; (compound concentration: 2 uM) inactive: 2.6; (compound concentration: 10 uM) inactive: 2.66.

For the compound `CCCCCCCCCCCCCCCC(=O)OC[C@@H](O)[C@H]1OC[C@H](O)[C@H]1O`, the TEAD-luciferase reporter activity was inactive: 0.338 (compound concentration: 200 nM), inactive: 1.59 (compound concentration: 2 uM) and inactive: -0.209 (compound concentration: 10 uM).

For the compound `O=C(NC(Cc1ccc(OCc2ccc3ccc(F)cc3n2)cc1)C(=O)O)c1ccc2ccccc2n1` (configuration not stated), the TEAD-luciferase reporter activity was inactive: -1.83 (compound concentration: 200 nM), inactive: -0.134 (compound concentration: 2 uM) and inactive: 4.63 (compound concentration: 10 uM).

Regarding `C[C@@H]1O[C@@H](O[C@@H]2[C@@H](O)[C@H](OCCc3ccc(O)c(O)c3)O[C@H](CO)[C@H]2OC(=O)/C=C/c2ccc(O)c(O)c2)[C@H](O)[C@H](O)[C@H]1O` [Verbascoside], the TEAD-luciferase reporter activity runs as follows: (compound concentration: 200 nM) inactive: -0.683; (compound concentration: 2 uM) inactive: -1.09; (compound concentration: 10 uM) inactive: -0.883.

As for `CCOC(Cc1ccc(OCCN2c3ccccc3Oc3ccccc32)cc1)C(=O)O` (configuration not stated), the TEAD-luciferase reporter activity was inactive: -0.189 (compound concentration: 200 nM), inactive: -0.0194 (compound concentration: 2 uM) and inactive: 4.97 (compound concentration: 10 uM).

`Cc1cc(=O)c(N)nn1-c1ccc(C(F)(F)F)cc1`: the TEAD-luciferase reporter activity is inactive: -0.533 (compound concentration: 200 nM), inactive: 2.72 (compound concentration: 2 uM) and inactive: 0.115 (compound concentration: 10 uM).

For `C/C1=C2/[N]([Co+][CH2][C@H]3O[C@H](n4cnc5c(N)ncnc54)[C@@H](O)[C@H]3O)[C@H]([C@H](CC(N)=O)[C@@]2(C)CCC(=O)NC[C@@H](C)OP(=O)([O-])O[C@H]2[C@@H](O)[C@@H](n3cnc4cc(C)c(C)cc43)O[C@@H]2CO)[C@]2(C)N=C(/C(C)=C3N=C(/C=C4N=C1[C@@H](CCC(N)=O)C\4(C)C)[C@@H](CCC(N)=O)[C@]\3(C)CC(N)=O)[C@@H](CCC(N)=O)[C@]2(C)CC(N)=O` [Coenzyme B12], the TEAD-luciferase reporter activity is, setting by setting: (compound concentration: 200 nM) inactive: -0.742; (compound concentration: 2 uM) inactive: -2.37; (compound concentration: 10 uM) inactive: -1.4.

For `CC(C)(C)NC(=O)c1ccccc1C[C@@H](O)[C@H](Cc1ccccc1)NC(=O)[C@@H](CS(=O)c1ccc2ccccc2c1)NS(C)(=O)=O` (some centres not stated), the TEAD-luciferase reporter activity by setting is: (compound concentration: 200 nM) inactive: 0.091; (compound concentration: 2 uM) inactive: 0.517; (compound concentration: 10 uM) inactive: -0.384.

With `CC(C)(C)c1nc2[nH]c(=S)[nH]c(=O)c2cc1-c1ccc(Cl)cc1`, the TEAD-luciferase reporter activity was inactive: 0.203 (compound concentration: 200 nM), inactive: -0.198 (compound concentration: 2 uM) and inactive: 1.78 (compound concentration: 10 uM).

With `C[C@H](C[C@@H](Cc1ccc(-c2ccccc2)cc1)NC(=O)CCC(=O)O)C(=O)O` [Sacubitrilat], the TEAD-luciferase reporter activity by setting is: (compound concentration: 200 nM) inactive: -0.48; (compound concentration: 2 uM) inactive: 0.323; (compound concentration: 10 uM) inactive: 0.661.

Consider `CC(C)C[C@H](NC(=O)[C@@H](NC(=O)c1cccc(-c2ccccc2)n1)[C@@H](C)O)B(O)O` [delanzomib], for which the TEAD-luciferase reporter activity runs as follows: (compound concentration: 200 nM) inactive: 1.13; (compound concentration: 10 uM) inactive: 3.9.

With `O=C(c1ccc(Cl)cc1)N1CC2(CCN(Cc3ccc(Cl)cc3)CC2)Cc2ccccc21`, the TEAD-luciferase reporter activity reads like this: (compound concentration: 200 nM) inactive: 0.342; (compound concentration: 10 uM) inactive: 0.793.

In the case of `O=C(O)[C@H]1CCCN1C(=O)CCCCC(=O)N1CCC[C@@H]1C(=O)O` [Miridesap], the TEAD-luciferase reporter activity reads like this: (compound concentration: 200 nM) inactive: 0.485; (compound concentration: 2 uM) inactive: -0.34; (compound concentration: 10 uM) inactive: 0.853.

For the compound `Cc1nc2c(OCc3ccccc3)cccn2c1CC#N`, the TEAD-luciferase reporter activity is, setting by setting: (compound concentration: 200 nM) inactive: 0.807; (compound concentration: 2 uM) inactive: 1.27; (compound concentration: 10 uM) inactive: 1.5.

For `CS(=O)(=O)Oc1ccc(OCCc2ccc(CC(C(=O)O)S(=O)(=O)CCc3ccc(O)cc3)cc2)cc1` (configuration not stated), the TEAD-luciferase reporter activity runs as follows: (compound concentration: 200 nM) inactive: -0.074; (compound concentration: 2 uM) inactive: -0.756; (compound concentration: 10 uM) inactive: 0.588.

As to `O=C(Nc1ccccn1)c1ccc2[nH]c(-c3ccc(NC(=O)C45CC6CC(CC(C6)C4)C5)cc3)nc2c1`, the TEAD-luciferase reporter activity runs as follows: (compound concentration: 200 nM) inactive: -1.05; (compound concentration: 2 uM) inactive: -0.512; (compound concentration: 10 uM) inactive: -0.207.

With `N=C(N)NCCC[C@H]1NC(=O)[C@H](Cc2ccc(O)cc2)NC(=O)[C@H]2CCCN2C(=O)[C@@H]2CCCN2C(=O)[C@H](CCCCN)NC(=O)[C@H](CCCNC(N)=O)NC(=O)[C@H](Cc2ccc(O)cc2)NC(=O)[C@H]2CSSC[C@@H](NC(=O)[C@H](CCCNC(N)=O)NC1=O)C(=O)N[C@H](CCCNC(=N)N)C(=O)NCC(=O)N1CCC[C@H]1C(=O)N[C@H](CCCNC(=N)N)C(=O)N[C@H](CCCNC(=N)N)C(=O)N[C@@H](Cc1ccc3ccccc3c1)C(=O)N2`, the TEAD-luciferase reporter activity reads like this: (compound concentration: 200 nM) inactive: -1.75; (compound concentration: 2 uM) inactive: -0.276; (compound concentration: 10 uM) inactive: 0.492.

Turning to `CC(CN1CC(=O)N(CN2CCOCC2)C(=O)C1)N1CC(=O)N(CN2CCOCC2)C(=O)C1` (configuration not stated), the TEAD-luciferase reporter activity reads like this: (compound concentration: 200 nM) inactive: -0.725; (compound concentration: 2 uM) inactive: 3.53; (compound concentration: 10 uM) inactive: -0.144.

As for `CC(C)=CCOc1cc(NC(=S)c2ccsc2)ccc1Cl`, the TEAD-luciferase reporter activity was inactive: 0.299 (compound concentration: 200 nM), inactive: -0.81 (compound concentration: 2 uM) and inactive: 0.0776 (compound concentration: 10 uM).

Take `Cc1cc(C(=O)NOCCO)c(Nc2ccc(I)cc2F)n(C)c1=O`: the TEAD-luciferase reporter activity (compound concentration: 200 nM) was inactive: -0.682, the TEAD-luciferase reporter activity (compound concentration: 2 uM) was inactive: -0.0757 and the TEAD-luciferase reporter activity (compound concentration: 10 uM) was inactive: -0.332.

On to `CCN1CCC(CC(NC(=O)c2ccc([N+](=O)[O-])cc2)c2ccc(F)cc2)CC1` (configuration not stated) [Niferidil], for which the TEAD-luciferase reporter activity was inactive: -1.17 (compound concentration: 200 nM), inactive: -1.21 (compound concentration: 2 uM) and inactive: 1.23 (compound concentration: 10 uM).

As to `CCCCS(=O)(=O)N[C@@H](CNC(=O)c1cc2n(n1)CCN(CCC1CCNCC1)C2=O)C(=O)O`, the TEAD-luciferase reporter activity is inactive: 0.381 (compound concentration: 200 nM) and inactive: -0.143 (compound concentration: 10 uM).

Regarding `CC1=C(c2cc(-n3ccnc3)cs2)NNC(=O)C1` [Motapizone], the TEAD-luciferase reporter activity is inactive: 0.507 (compound concentration: 200 nM), inactive: -1.47 (compound concentration: 2 uM) and inactive: -0.48 (compound concentration: 10 uM).

Consider `CC[C@]1(O)C[C@H]2CN(CCc3c([nH]c4ccccc34)[C@@](C(=O)OC)(c3cc4c(cc3OC)N(C)[C@H]3[C@@](O)(C(N)=O)[C@H](O)[C@]5(CC)C=CCN6CC[C@]43[C@@H]65)C2)C1`, for which the TEAD-luciferase reporter activity runs as follows: (compound concentration: 200 nM) inactive: 4.66; (compound concentration: 10 uM) active: 5.99.

With `CC[C@]1(O)C[C@H]2CN(CCc3c([nH]c4ccccc34)[C@@](C(=O)OC)(c3cc4c(cc3OC)N(C)[C@H]3[C@@](O)(C(N)=O)[C@H](O)[C@]5(CC)C=CCN6CC[C@]43[C@@H]65)C2)C1` [vindesine], for the setting “compound concentration: 2 uM”, the TEAD-luciferase reporter activity is inactive: 3.97.
